# Reference: PubChem BioAssay AID1347076 (National Center for Advancing Translational Sciences (NCATS), 2019)
# Out of some 400,000 compounds screened, about 13,000 (3.2%) were called active. Inconclusive means that the source gave no clear call. Such entries were picked first, then a sample of the others. Calls follow the shape of the dose curve; as a rule, active = well fitted cell-killing curve with a large enough effect; inconclusive = small, poorly fitted or top-dose-only effect, or effect the other way; inactive = flat fitted curve, though single readings scatter. Potencies of inconclusive entries are doubtful fits and often do not repeat.
# Test: qHTS assay for MDR1-selective chemotherapeutics: Primary screen using the drug-selected MDR subline cells KB-V1; also: nearly all actives have a fitted effect of over 60% in size
# Settings: KB-V1 MDR cells viability, CellTiter-Glo, 72 h; series mostly up to 46.1 µM
# Summary of the method: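 Potencies derive from concentration-effect curves fitted to normalized luminescence (CellTiter-Glo) of KB-V1 cells treated for 72 h at 37 degrees C in phenol-red-free DMEM containing 10% FBS.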
# Potency is read from the fitted curve at half-maximal effect.
row,SMILES,Potency
1,Cc1cccc(-c2nc(Nc3ccc(N4CCOCC4)cc3)c3ccccc3n2)c1,"inconclusive: 7.31 µM [cytotoxic, partial curve, poor fit]"
2,C=CCOC(=O)c1ccc(N2CCN(c3ccccc3)CC2)nc1,inactive
3,Cc1ccc(CNC(=O)c2cc(C3CC3)nc3c2c(C)nn3-c2cccc(Cl)c2C)cc1,"inconclusive: 11.6 µM [rising, single point]"
4,O=C(O)CNc1nc(-c2ccccc2)c2cc([N+](=O)[O-])ccc2n1,inactive
5,CCCCCOCC1CC(C/C(C)=N/NC(N)=O)(C(=O)OCC)C(=O)O1 (centres undefined),"inconclusive: 18.4 µM [rising, partial curve, poor fit]"
6,O=C1NCCN(CC2CCN(CCc3ccc(Cl)c(Cl)c3)CC2)C1=O,inactive
7,O=C(NCCN1CCOCC1)c1cc(-c2ccccc2)on1,inactive
8,O=C(O)CCCC(=O)N1CCN(C(c2ccccc2)c2ccccc2)CC1,"inconclusive: 25.9 µM [rising, partial curve, poor fit]"
9,CCCN(CCC)C(=O)c1c[nH]c2ccc(S(=O)(=O)Nc3cc(C)cc(C)c3)cc2c1=O,"inconclusive: 18.4 µM [rising, single point]"
10,CCc1nc(Nc2ccc(O)cc2)c2oc3ccccc3c2n1,"inconclusive: 20.6 µM [cytotoxic, single point]"
11,CCn1c(Sc2ccc([N+](=O)[O-])cn2)nnc1-c1ccco1,"inconclusive: 29.1 µM [cytotoxic, single point]"
12,COc1ccc(S(=O)(=O)NCCC(=O)NCc2ccccc2)cc1,"inconclusive: 18.4 µM [cytotoxic, single point]"
13,O=C(COC(=O)CCN1C(=O)C2CC=CCC2C1=O)NCCc1ccc(F)cc1 (centres undefined),"inconclusive: 20.6 µM [rising, single point]"
14,CC1(C(=O)Nc2ccc3c(c2)OCCO3)CCC(=O)N1CCc1c[nH]c2ccccc12 (centres undefined),"inconclusive: 20.6 µM [rising, partial curve, poor fit]"
15,CCOc1ccccc1-n1c(CN2CCN(C(=O)c3ccco3)CC2)nc2ccccc2c1=O,"inconclusive: 29.1 µM [cytotoxic, single point]"
16,O=C(NCc1cccnc1)C(=O)NCC(c1ccco1)N1CCN(c2ccccc2)CC1 (centres undefined),active: 9.2 µM
17,COc1ccc(C(=O)/C=C/c2ccc(F)cc2)c(OC(=O)c2ccc([N+](=O)[O-])cc2)c1,"inconclusive: 29.1 µM [cytotoxic, single point]"
18,C/C(CCc1ccco1)=N/NC(=O)CCC(=O)Nc1cccc(Cl)c1,"inconclusive: 23.1 µM [rising, partial curve]"
19,C=C1NN(Cc2ccccc2)C(=O)N1c1ccc(OCc2ccccc2)cc1,inactive
20,COc1ccc(N2CCN(C(=O)CSc3nnnn3-c3ccc4c(c3)OCCO4)CC2)cc1,active: 20.6 µM
21,O=C(Nc1ccc(Cl)cc1C(F)(F)F)C(Sc1cccc[n+]1[O-])c1ccccc1 (centres undefined),"inconclusive: 8.2 µM [cytotoxic, partial curve]"
22,Cc1nc(N2CCC(C)CC2)c2nnn(Cc3ccccc3)c2n1,"inconclusive: 29.1 µM [cytotoxic, single point]"
23,N#CC1(NC(=O)COC(=O)c2ccc(Cl)nc2)CCCCC1,inactive

row,SMILES,Potency
1,CC(=O)N(CN1C(=O)CCC1=O)c1cccc(Cl)c1,"inconclusive: 32.6 µM [rising, single point]"
2,CC1Sc2ccc(S(=O)(=O)CCC(=O)NCc3cccs3)cc2NC1=O (centres undefined),"inconclusive: 32.6 µM [rising, single point]"
3,O=C(c1cc(COc2ccc(F)cc2F)on1)N1CCN(C2CCCC2)C(=O)C1,active: 5.17 µM
4,CCOC(=O)N1CCN(C(=O)c2ccc3c(=O)n(-c4cc(OC)ccc4OC)c(=S)[nH]c3c2)CC1,inactive
5,CCOc1cccc2cc(C(=O)N3CCN(C/C=C/c4ccccc4)CC3)c(=O)oc12,active: 8.2 µM
6,CC(=O)c1c(C)[nH]c(C(=O)Nc2cc(F)ccc2C)c1C,"inconclusive: 9.2 µM [cytotoxic, partial curve, poor fit]"
7,C/C(=N\NC(N)=O)c1ccccc1Cl,"inconclusive: 0.0082 µM [rising, full curve]"
8,OCCCNc1ncnc2oc(-c3ccccc3)c(-c3ccccc3)c12,"inconclusive: 16.4 µM [cytotoxic, single point]"
9,CCOC(=O)c1ccc(Cn2c(-c3ccccc3)nnc2-c2ccccc2)o1,"inconclusive: 14.6 µM [cytotoxic, partial curve]"
10,Cc1ccccc1S(=O)(=O)Nc1nc2ccccc2nc1N1CCc2ccccc2C1,active: 20.6 µM
11,COc1ccccc1NC(=O)c1ccc(NC(=O)CN2CCCCC2)cc1,"inconclusive: 9.2 µM [rising, partial curve, poor fit]"
12,Cc1cc(=O)[nH]c2cc(N)ccc12,inactive
13,COc1ccc(CN2CCNC(=O)C2CC(=O)N(C)CCC2CCOCC2)cc1OC (centres undefined),"inconclusive: 29.1 µM [rising, partial curve, poor fit]"
14,O=C(COC(=O)c1ccc(F)c(S(=O)(=O)N2CCOCC2)c1)NC1CCCCC1,"inconclusive: 1.16 µM [rising, full curve]"
15,CN(C)c1cccc(N=C2C=C(N3CCOCC3)CC(C)(C)C2)c1,"inconclusive: 25.9 µM [rising, partial curve, poor fit]"
16,O=C(NCCc1ccccc1)C1CCCN(S(=O)(=O)c2cccc3nonc23)C1 (centres undefined),"inconclusive: 9.2 µM [cytotoxic, partial curve]"
17,COc1ccc(-c2cc(C(F)(F)F)n3nc(N)nc3n2)cc1,"inconclusive: 18.4 µM [cytotoxic, single point]"
18,COc1ccc(C(=O)c2c3ccc([N+](=O)[O-])cc3[n+]([O-])n2CCCC(N)=O)cc1,"inconclusive: 29.1 µM [rising, single point]"
19,CCC(C)Sc1nnc(CSc2nc3nc(C)cc(C)n3n2)o1 (centres undefined),"inconclusive: 16.4 µM [cytotoxic, partial curve]"
20,Nc1c(S(=O)(=O)c2cccs2)c2nc3ccccc3nc2n1/N=C/c1cccc(O)c1,"inconclusive: 29.1 µM [cytotoxic, single point]"
21,CC1CCN(C(=S)c2ccc3c(c2)OCO3)CC1,inactive
22,COC(=O)c1cccc(C(=O)Nc2ccc(C)cc2Br)n1,active: 14.6 µM
23,Cc1cccc2nc(CSC(=N)N)c(Br)n12,"inconclusive: 0.092 µM [cytotoxic, full curve]"

# Random excerpt: 2 compounds from above
row,SMILES,Potency
18,COc1ccc(C(=O)c2c3ccc([N+](=O)[O-])cc3[n+]([O-])n2CCCC(N)=O)cc1,"inconclusive: 29.1 µM [rising, single point]"
8,O=C(O)CCCC(=O)N1CCN(C(c2ccccc2)c2ccccc2)CC1,"inconclusive: 25.9 µM [rising, partial curve, poor fit]"

# Later entries

row,SMILES,Potency
1,COc1ccc(CCN(C)Cc2ccc(OC)c(OCc3ccccc3)c2)cc1OC,inactive
2,CCCCn1c(=O)[nH]c2nc3cc(NC(C)=O)ccc3nc2c1=O,"inconclusive: 4.11 µM [rising, partial curve, poor fit]"
3,Cc1ccc(C)c(NC(=S)NCCCN2CCOCC2)c1,inactive
4,O=C(NCc1cccc(F)c1)c1cccc2c1C(=O)c1ccc(N3CCOCC3)cc1S2(=O)=O,inactive
5,CC(NC(=O)CN(C)CC(=O)Nc1cccc(F)c1)c1ccccc1 (centres undefined),active: 18.4 µM
6,COc1cccc(N2CCN(C3OC(=O)c4ccccc43)CC2)c1 (centres undefined),"inconclusive: 29.1 µM [rising, single point]"
7,COc1cc(C2=NOC(C(=O)N3CCN(c4ccc(F)cc4)CC3)C2)cc(OC)c1OC (centres undefined),inactive
8,CCC(C(=O)NCCC1=CCCCC1)n1nc(C)c2c(C)n(-c3ccccc3)nc2c1=O (centres undefined),"inconclusive: 2.59 µM [cytotoxic, partial curve, poor fit]"
9,O=C(NNC(=O)C1[C@H]2CCCC[C@@H]12)Nc1cccc2ccccc12 (some centres undefined),inactive
10,COc1cccc(/C=N/N(C)C2=NS(=O)(=O)c3ccccc32)c1O,"inconclusive: 29.1 µM [rising, single point]"
11,O=C1C2=C(Nc3ccccc3SC2c2ccc(Cl)c(Cl)c2)c2ccccc21 (centres undefined),"inconclusive: 29.1 µM [cytotoxic, single point]"
12,COc1ccc(COC(=O)c2cccc(S(=O)(=O)N3CCN(C(C)=O)CC3)c2)cc1F,"inconclusive: 23.1 µM [cytotoxic, single point]"
13,COc1cccc(N2C(=O)C(CC(=O)Nc3ccc(F)cc3)N(CCC3=CCCCC3)C2=O)c1 (centres undefined),"inconclusive: 16.4 µM [cytotoxic, single point]"
14,CCN(CC)CCNC(=O)Cn1nc(Cc2ccncc2)c2ccccc2c1=O,"inconclusive: 14.6 µM [rising, single point]"
15,O=C(NCc1cccnc1)C(=O)C1C(=O)Nc2ccccc21 (centres undefined),inactive
16,COc1ccccc1NC(CC(=O)c1ccccc1)C(=O)OCC(=O)c1ccc(F)cc1 (centres undefined),inactive
17,Cc1ccc(Nc2ccc3nonc3c2[N+](=O)[O-])cc1,inactive
18,CC1(C)CC(=O)c2cnc(N3CCc4ccccc43)nc2C1,"inconclusive: 16.4 µM [cytotoxic, single point]"
19,COc1ccc(C)cc1NS(=O)(=O)c1ccc(NC(=O)CN(c2cc([N+](=O)[O-])ccc2C)S(C)(=O)=O)cc1,inactive
20,Cc1cc(-c2ccccc2)nc(SCC(=O)c2cccc([N+](=O)[O-])c2)n1,"inconclusive: 0.58 µM [cytotoxic, full curve, poor fit]"
21,O=C(/C=C\c1ccccc1OC(=O)c1ccccc1F)c1cc2ccccc2o1,"inconclusive: 29.1 µM [cytotoxic, single point]"
22,O=C(Nc1ccccc1Cl)C1CCN(Cc2cnn(-c3ccccc3)c2-n2cccc2)CC1,active: 23.1 µM
23,Cc1ccc2c(c1)[C@@H]1[C@H](CO2)[C@H](c2ccccc2)[C@@]2(C)C(=O)N[C@H](C)C(=O)N12,"inconclusive: 6.51 µM [rising, full curve, poor fit]"
